Source: PubChem BioAssay AID1794844 (National Center for Advancing Translational Sciences (NCATS), 2023)
The campaign covered roughly 2,800 compounds. Fewer than 10 were called active. Another 7% or so got no clear call; they are omitted. Calls follow the shape of the dose curve; as a rule, active = well fitted inhibition curve with a large enough effect; inconclusive = small, poorly fitted or top-dose-only effect; inactive = no such curve, though single readings can be large or run the other way. The list shows a part of the results.

Chains of the proteins cited; added tags and fusions are not shown. Lines headed by an entry give the natural chain unless they say otherwise; changes in a name come on top.
UniProt C7C422: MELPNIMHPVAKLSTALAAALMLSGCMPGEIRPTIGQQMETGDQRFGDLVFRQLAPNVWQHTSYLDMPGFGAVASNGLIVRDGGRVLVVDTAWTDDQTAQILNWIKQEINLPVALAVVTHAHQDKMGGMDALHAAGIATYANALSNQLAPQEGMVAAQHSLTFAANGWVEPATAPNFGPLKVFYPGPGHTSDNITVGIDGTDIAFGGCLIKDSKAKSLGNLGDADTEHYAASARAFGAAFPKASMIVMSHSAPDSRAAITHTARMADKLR

Biological target: Metallo-beta-lactamase type 2 (Klebsiella pneumoniae) (UniProt C7C422)
Experiment: qHTS to identify inhibitors of the New Delhi Metallo-beta-lactamase (NDM): Nitrocefin screen against the machine-based learning selections. Also: % of control where 0% means no effect.
Conditions: NDM-1 enzyme, nitrocefin hydrolysis, absorbance 485 nm; activity, negative = inhibition: at the top concentration
In short: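 NDM-1 (2 nM final) in 50 mM HEPES pH 7.0, 1 uM Zn2SO4, 0.01% Tween20 was preincubated with compounds for >30 min. Nitrocefin (16.7 uM final) was read at 485 nm after 15 min, and meropenem (50 uM final) at 300 nm after 30 min.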

activity, negative = inhibition, inactive:
NC(=O)c1nc(CNC(=O)[C@H]2CCC[C@H](O)C2)no1 -12.8%, COc1ccccc1CNC[C@H]1O[C@@H]2C[C@@H](CC(=O)NCc3nccn3C)O[C@@H]2[C@@H]1O -4.2% [at 57.5 µM], O=C1Nc2ccc(-c3ccc(Cl)cc3)cc2C(=O)N2CC[C@H](NC(=O)N3CCOCC3)[C@@H]12 5.75%, COCCCNC(=O)CCC[C@@H]1[C@H]2CCCN3CCC[C@@H](CN1C(=O)c1ccccc1)[C@@H]23 -3.2%, COc1ccc(OC)c(S(=O)(=O)N2CCCC(Cn3c(C)nc4cccnc43)C2)c1 (stereo not given) 0.0221%, O=C(O)CCCC(=O)N1CCN2C(=O)c3cc(-c4ccco4)ccc3NC(=O)[C@@H]2C1 -1.67% [at 57.5 µM], CCCC(C)N1CC2(CCN(C(=O)c3cnn4ccccc34)CC2)OC1=O (stereo not given) 1.21%, O=C(NCCc1noc(C(F)(F)F)n1)[C@H]1CCC[C@H](O)C1 -0.36%, CCCn1ccc2sc(C)c(C(=O)NCc3cc(F)ccc3F)c2c1=O 3.42%, Cc1ccc(S(=O)(=O)Cc2noc([C@@H]3C[C@@H](O)CN3C(C)C)n2)cc1 6.26% [at 57.5 µM], CC(c1ccc(-c2ccc(N(C)C)nn2)cc1)N(C)C (stereo not given) 1.2%, OCc1cccc(-c2cc3c(cn2)CN(Cc2ccccc2)CCN3)c1 -4.5% [at 57.5 µM], CC1(C(=O)NCCOc2ccccc2)CCCc2cnc(Nc3cccnc3)nc21 (stereo not given) -0.598% [at 57.5 µM], O=C1CCCCC(CNC(=O)c2ccccc2)N1 (stereo not given) -0.956%, CN(C)CC(NC1CCC2(CCNCC2)CC1)c1ccccc1 (stereo not given) 1.73%, COCC(=O)N[C@@H]1CCC[C@@H](C(=O)NCc2cc(F)cc(F)c2)CC(=O)N(C)C1 393% [at 57.5 µM], COc1ccc(CN2CCNc3cnc(Nc4ccccc4)cc3C2)cc1O 2.38% [at 57.5 µM], O=C(Nc1ccccc1CCc1ccccn1)C1CCN(c2cnn(Cc3ccccc3)c(=O)c2)C1 (stereo not given) 0.595%, NS(=O)(=O)c1ccc(C(=O)N[C@H](c2cccs2)C2CC(O)C2)cc1 (stereo not given in full) 0.424%, COc1ccc(-c2cc(N3CCCN(C(=O)c4ccc(C)s4)CC3)n[nH]2)cc1 3.9%
